Results from patent US20190367567A1 (priority 2016, published 2019).
Part of at least one peptide drawing is inferred or uncertain, most often the ends. Where a SMILES comes first, the peptide text is derived from it. [ ]: non-standard residue; d: D form.

Tests used:
[1] = tested on: PR8 influenza virus (A/Puerto Rico/8/1934); assay type: cell-based
H1N1 influenza viruses = assay type: cell-based, influenza A virus
Zika = assay type: cell-based
Hepatitis C = assay type: cell-based
Herpes Simplex Virus II = assay type: cell-based
H3N2 influenza viruses = assay type: cell-based, influenza A virus
[2] = tested on: Human Immunodeficiency virus; assay type: cell-based
[3] = tested on: Simian immunodeficiency virus; assay type: cell-based
recombinant purified HA = assay type: binding, influenza virus
Ebola = assay type: cell-based
Dengue viruses = assay type: cell-based
[4] = tested on: human H1N1 influenza A virus A/Puerto Rico/8/1934 (PR8)
PR8 virus = tested on: PR8 virus; set-up: species or system influenza A virus

Row | Compound | reduction of the PR8 influenza virus [1] | decrease of titers, some H1N1 strains (H1N1 influenza viruses) | antiviral effect (Zika) | antiviral effect (Hepatitis C) | antiviral effect (Herpes Simplex Virus II) | reduction of virus, 3 of 4 H3N2 viruses (H3N2 influenza viruses) | reduction of virus, all 4 H3N2 viruses (H3N2 influenza viruses) | antiviral effect [2] | antiviral effect [3] | inhibition of binding of anti-head monoclonal antibodies to HA (recombinant purified HA) | inhibition of binding of anti-stalk monoclonal antibodies to HA (recombinant purified HA) | antiviral effect (Ebola) | antiviral effect (Dengue viruses) | time of incubation with the peptide within which antiviral activity occurs [4] [min] | integrity of virus particles by electron microscopy (PR8 virus)
1 | CC[C@@H](C)[C@@H](N)C(=O)N1CCC[C@@H]1C(=O)N[C@H](CC(C)C)C(=O)N[C@H](CCCNC(=N)N)C(=O)NCC(=O)N[C@H](C)C(=O)N[C@H](Cc1ccccc1)C(=O)N[C@@H](C(=O)N[C@H](CC(N)=O)C(=O)NCC(=O)N[C@H](CCCNC(=N)N)C(=O)N[C@H](Cc1c[nH]c2ccccc12)C(=O)N[C@H](CC(=O)O)C(=O)N[C@H](CO)C(=O)N[C@H](CCC(N)=O)C(=O)N[C@H](CS)C(=O)N[C@H](Cc1c[nH]cn1)C(=O)N[C@H](CCCNC(=N)N)C(=O)N[C@H](Cc1ccccc1)C(=O)N[C@H](CO)C(=O)N[C@H](CC(N)=O)C(=O)NCC(=O)N[C@H](C)C(=O)N[C@@H](C(=O)N[C@H](C)C(=O)N[C@H](CS)C(=O)N[C@H](C)C(=O)O)[C@H](C)CC)[C@H](C)CC [D-Urumin] (H-[dI][dP][dL][dR]G[dA][dF][dI][dN]G[dR][dW][dD][dS][dQ][dC][dH][dR][dF][dS][dN]G[dA][dI][dA][dC][dA]-OH) | no reduction | – | – | – | – | – | – | – | – | – | – | – | – | – | –
2 | CC[C@H](C)[C@H](N)C(=O)N1CCC[C@H]1C(=O)N[C@@H](CC(C)C)C(=O)N[C@@H](CCCNC(=N)N)C(=O)NCC(=O)N[C@@H](C)C(=O)N[C@@H](Cc1ccccc1)C(=O)N[C@H](C(=O)N[C@@H](CC(N)=O)C(=O)NCC(=O)N[C@@H](CCCNC(=N)N)C(=O)N[C@@H](Cc1c[nH]c2ccccc12)C(=O)N[C@@H](CC(=O)O)C(=O)N[C@@H](CO)C(=O)N[C@@H](CCC(N)=O)C(=O)N[C@@H](CS)C(=O)N[C@@H](Cc1c[nH]cn1)C(=O)N[C@@H](CCCNC(=N)N)C(=O)N[C@@H](Cc1ccccc1)C(=O)N[C@@H](CO)C(=O)N[C@@H](CC(N)=O)C(=O)NCC(=O)N[C@@H](C)C(=O)N[C@H](C(=O)N[C@@H](C)C(=O)N[C@@H](CS)C(=O)N[C@@H](C)C(=O)O)[C@@H](C)CC)[C@@H](C)CC [Urumin] (H-IPLRGAFINGRWDSQCHRFSNGAIACA-OH) | – | over 90% | no antiviral effect | no antiviral effect | no antiviral effect | less than 30% | less than 50% | no antiviral effect | no antiviral effect | not anti-head | inhibited the binding | no antiviral effect | no antiviral effect | ≤ 15 | completely destroyed
